Test results taken from patent publication US7115380B2, “Applications of peptides derived from the cytoplasmic domain of amyloid precursor protein (APP)” (Centre National de la Recherche Scientifique, priority 1999, dated 2006).

Tested on: neurons (primary culture)
Test: Internalization verified by confocal microscopy after immunolabeling or biotin detection
Assay type: cell-based, mouse or rat
Details: compared among the three peptides

Substance: Pmyc: SEQ ID NO: 5 + peptide corresponding to the MYC sequence [EQKLISEED]; no relation to APP (KQIKIWFQNRRMKWKKEQKLISEED; listed as Homo sapiens)
- internalization and intracellular stability: identical
